Laboratory results: publication PMC3577912
Results are given in words; binding and its absence hold for the method and conditions named. For part of these data: In cells and extracts the contact can be indirect. Some entries that bind do so weakly or less than the wild type. For part of these data: Where a sequence is shown, tags or fusion partners need not be part of it. One block for each binder: values may come before it.

Sequences of proteins named here, by UniProt entry; tags and fusion partners are left off.
UniProt O81445: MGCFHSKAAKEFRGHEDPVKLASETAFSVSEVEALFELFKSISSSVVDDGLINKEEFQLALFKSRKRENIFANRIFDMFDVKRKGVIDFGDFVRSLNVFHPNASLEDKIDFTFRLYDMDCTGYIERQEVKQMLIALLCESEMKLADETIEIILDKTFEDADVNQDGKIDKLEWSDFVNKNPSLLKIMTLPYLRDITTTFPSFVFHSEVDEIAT

Key:
[1] = target: CBL1 (calcineurin B-like protein 1), bait fusion from pGBKT7-CBL1 (Arabidopsis thaliana) (UniProt O81445); test: two-hybrid; systematic yeast two-hybrid experiments of AKINβ1 with different AtCBL isoforms; data not shown
[2] = target: CBL1 (calcineurin B-like protein 1), bait fusion from pGBKT7-CBL1 (Arabidopsis thaliana) (UniProt O81445); test: two-hybrid; … system, yeast AH109; bait pGBKT7-CBL1, prey pGADT7-AKINβ1; growth on SD-Trp-Leu-Ade-His and β-galactosidase assay
[3] = target: YFPN-CBL1 (Arabidopsis thaliana) (UniProt O81445); test: split reporter; BiFC, YFPN-CBL1 and YFPC-AKINβ1 co-transformed into Arabidopsis protoplasts, confocal microscopy 16 h after incubation at room temperature

binding [1]: binds
binding [2]: binds
B1: AKINβ1, regulatory β subunit of the SnRK1 complex, prey fusion from pGADT7-AKINβ1 (protein, UniProt Q84VQ1 1-283)
chain: MGNANGKDEDAAAGSGGADVTSSSARSNGGDPSARSRHRRPSSDSMSSSPPGSPARSPSPFLFAPQVPVAPLQRANAPPPNNIQWNQSQRVFDNPPEQGIPTIITWNQGGNDVAVEGSWDNWRSRKKLQKSGKDHSILFVLPSGIYHYKVIVDGESKYIPDLPFVADEVGNVCNILDVHNFVPENPESIVEFEAPPSPDHSYGQTLPAAEDYAKEPLAVPPQLHLTLLGTTEETAIATKPQHVVLNHVFIEQGWTPQSIVALGLTHRFESKYITVVLYKPLTR

binding [3]: binds
B2: YFPC-AKINβ1 (protein, UniProt Q84VQ1 1-283)
chain: B1 chain
